From the supplement of paper PMC4604168 (melanoma cell lines)
This is one part of the list. Single values are uncertain, as repeats are few or missing.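 The apoptosis fraction was the count of cleaved-PARP antibody-stained nuclei relative to all DNA-stained nuclei, imaged in 1,536-well plates. Screening doses were set so most cells survived, and baseline and induced cleaved-PARP levels vary greatly across cell lines.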

tested on: COLO800; assay: cleaved PARP positive nuclei fraction relative to DMSO control; melanoma cells; higher = more apoptosis; conditions: library dose: low library concentration; 72 h

**Q.** `CCCS(=O)(=O)Nc1ccc(F)c(C(=O)c2c[nH]c3ncc(Cl)cc23)c1F` + Oc1nc(-c2ccc(C(F)(F)F)cc2)nc2c1CSCC2 [XAV939] (first compound 0.08 µM, partner dose 2 µM) was tested. Which “cleaved PARP positive nuclei fraction” value did it give?
**A.** 39.7%

**Q.** For `Nc1nc(F)nc2c1ncn2[C@@H]1O[C@H](CO)[C@@H](O)[C@@H]1O` [fludarabine] + COc1ccc(-c2ccc3c(N4CCOCC4)nc(N4C[C@@H](C)O[C@@H](C)C4)nc3n2)cc1CO [KU0063794] (first compound 0.2 µM, partner dose 0.02 µM), which “cleaved PARP positive nuclei fraction” value is on record?
**A.** 38.2%

**Q.** How did the “cleaved PARP positive nuclei fraction” value turn out when `CS(=O)(=O)CCNCc1ccc(-c2ccc3ncnc(Nc4ccc(OCc5cccc(F)c5)c(Cl)c4)c3c2)o1` [lapatinib] + O=C(Nc1ccccc1)c1cc([N+](=O)[O-])ccc1Cl [GW9662] (first compound 0.8 µM, partner dose 2 µM) was run?
**A.** 111%

**Q.** With `C=C(c1ccc(C(=O)O)cc1)c1cc2c(cc1C)C(C)(C)CCC2(C)C` [Bexarotene] + CCc1ccc(CCOc2ccc(CC3SC(=O)NC3=O)cc2)nc1 [pioglitazone] (first compound 2 µM, partner dose 2 µM) as the molecule, how does the “cleaved PARP positive nuclei fraction” value read?
**A.** 49.8%

**Q.** Which “cleaved PARP positive nuclei fraction” value does the source give for `C=C(c1ccc(C(=O)O)cc1)c1cc2c(cc1C)C(C)(C)CCC2(C)C` [Bexarotene] + c1cc(-c2cnn3cc(-c4ccc(OCCN5CCCCC5)cc4)cnc23)ccn1 [Dorsomorphin] (first compound 2 µM, partner dose 0.4 µM) here?
**A.** 157%

**Q.** For `CS(=O)(=O)CCNCc1ccc(-c2ccc3ncnc(Nc4ccc(OCc5cccc(F)c5)c(Cl)c4)c3c2)o1` [lapatinib] + COc1cc(N2CCC(N3CCN(C)CC3)CC2)ccc1Nc1ncc(Cl)c(Nc2ccccc2S(=O)(=O)C(C)C)n1 [NVP-TAE684] (first compound 0.8 µM, partner dose 0.08 µM), which “cleaved PARP positive nuclei fraction” value is on record?
**A.** 72.4%

**Q.** How did the “cleaved PARP positive nuclei fraction” value turn out when `CNC(=O)c1cc(Oc2ccc(NC(=O)Nc3ccc(Cl)c(C(F)(F)F)c3)cc2)ccn1` [sorafenib] + CCN(CC)CCCCNc1ncc2cc(-c3cc(OC)cc(OC)c3)c(NC(=O)NC(C)(C)C)nc2n1 [PD173074] (first compound 0.4 µM, partner dose 0.1 µM) was run?
**A.** 70.5%

**Q.** How did the “cleaved PARP positive nuclei fraction” value turn out when `CO[C@H]1C[C@@H]2CC[C@@H](C)[C@@](O)(O2)C(=O)C(=O)N2CCCC[C@H]2C(=O)O[C@H]([C@H](C)C[C@@H]2CC[C@@H](OCCO)[C@H](OC)C2)CC(=O)[C@H](C)/C=C(\C)[C@@H](O)[C@@H](OC)C(=O)[C@H](C)C[C@H](C)/C=C/C=C/C=C/1C` [everolimus] + O=C1NC(=O)/C(=C/c2ccc(-c3ccc(F)cc3O)o2)S1 [AS252424] (first compound 0.02 µM, partner dose 1 µM) was run?
**A.** 172%
